Test results: PubChem BioAssay AID540275 (National Center for Advancing Translational Sciences (NCATS), 2011)
In all, about 320,000 compounds went through this assay and about 620 (0.19%) were called active. This list was built around the results that the source calls inconclusive (neither active nor inactive); the mix of calls is not that of the screen. No stated cut-off is given here; in the data, active means activation above about 80%; inconclusive means between about 30% and that limit; inactive means weaker than that.

The chains behind the UniProt entries cited, without tags or fusion partners.
UniProt Q8NER1, whole entry, looked up: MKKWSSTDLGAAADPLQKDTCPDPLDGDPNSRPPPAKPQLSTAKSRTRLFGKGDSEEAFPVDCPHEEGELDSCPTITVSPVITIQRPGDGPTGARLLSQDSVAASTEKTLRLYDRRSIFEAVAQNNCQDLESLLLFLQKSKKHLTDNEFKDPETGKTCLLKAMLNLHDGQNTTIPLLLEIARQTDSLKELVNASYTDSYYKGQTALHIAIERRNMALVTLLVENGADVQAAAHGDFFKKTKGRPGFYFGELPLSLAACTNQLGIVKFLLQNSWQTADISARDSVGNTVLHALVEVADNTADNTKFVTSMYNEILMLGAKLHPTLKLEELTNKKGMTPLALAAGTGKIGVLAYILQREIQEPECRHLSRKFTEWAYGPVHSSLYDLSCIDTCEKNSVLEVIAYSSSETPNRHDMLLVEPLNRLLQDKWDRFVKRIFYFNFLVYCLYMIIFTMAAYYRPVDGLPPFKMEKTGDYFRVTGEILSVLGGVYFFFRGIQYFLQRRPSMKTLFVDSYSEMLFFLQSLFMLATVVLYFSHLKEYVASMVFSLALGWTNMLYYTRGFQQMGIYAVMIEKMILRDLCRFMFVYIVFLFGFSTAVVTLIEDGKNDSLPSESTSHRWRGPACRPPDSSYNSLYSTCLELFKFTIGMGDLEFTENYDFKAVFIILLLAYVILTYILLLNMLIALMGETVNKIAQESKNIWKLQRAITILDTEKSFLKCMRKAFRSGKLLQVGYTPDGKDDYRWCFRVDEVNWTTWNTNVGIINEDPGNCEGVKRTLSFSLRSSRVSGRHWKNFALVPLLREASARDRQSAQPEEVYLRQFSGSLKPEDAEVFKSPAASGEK

target: Transient receptor potential cation channel subfamily V member 1 (Homo sapiens) (UniProt Q8NER1); test: HTS Assay for Compounds that Act as Agonists of the Vanilloid Receptor 1; settings: TRPV1-expressing cells, Fluo-8 calcium influx, agonist mode; at 8.33 µM, active compounds read high; further: 0% is about no effect
In short: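 Cells expressing TRPV1 were dye-loaded with Fluo-8 and read kinetically: 10 s baseline, 3 min after compound (agonist portion), then 2 min after EC20 capsaicin (allosteric enhancer portion). Calcium-bound dye fluorescence at 480/520 nm.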

Row | Structure (SMILES) | activation
1 | Cc1cccc(CCNC(=O)c2cccc3c2C(=O)N(C2CCCCC2)C3)c1 | inconclusive: 36.3%
2 | S=C(Nc1ccc2[nH]ccc2c1)NC1CCCCC1 | inconclusive: 67.8%
3 | O=C(Nc1nc2c(s1)CN(Cc1ccccc1)CC2)c1cccc(S(=O)(=O)N2CCc3ccccc32)c1 | inactive: 14.2%
4 | Nc1nn(S(=O)(=O)c2ccccc2)cc1-c1ccc([N+](=O)[O-])cc1 | inactive: 3.14%
5 | CCCCOC(=O)c1ccc(NC(=O)/C=C/c2cccs2)cc1 | inconclusive: 73.4%
6 | CC(=O)NC1CCCc2c1cnn2-c1ccc(C(C)(C)C)cc1 (stereo not drawn) | inconclusive: 73.2%
7 | Cc1ccc(SCC(=O)OCC(=O)NCC2CCCCC2)cc1C | inconclusive: 42.8%
8 | COc1ccc(CN(C)C(=O)C2CC(=O)N(c3ccc4c(c3)OCCO4)C2)c(OC)c1 (stereo not drawn) | inactive: -1.72%
9 | COc1ccc(CC(=O)Nc2ccc(N(C)C)c3ccccc23)cc1 | inconclusive: 36.7%
10 | CCc1cc2c(=O)n(Cc3ccco3)c(SCC(=O)NC3CCS(=O)(=O)C3)nc2s1 (stereo not drawn) | inactive: 2.14%
11 | COc1ccc(NC(=O)N2CCCCC2c2cccnc2)cc1 (stereo not drawn) | inactive: 3.34%
12 | COc1ccc(S(=O)(=O)N2CCN(C(=O)NCc3ccc(C)cc3)CC2)cc1 | inconclusive: 46.3%
13 | Cc1ccccc1N=C/C=C1\N(C)c2ccccc2C1(C)C | inactive: -4.17%
14 | O=C(Nc1ccc(C(F)(F)F)cc1)c1ccccc1Br | inconclusive: 46.6%
15 | O=C(COC(=O)c1ccccn1)Nc1nc(-c2ccccc2)cs1 | inactive: 3.35%
16 | CC(=O)Nc1ccc2c(COC(=O)[C@H](C)N3C(=O)C4CCCCC4C3=O)cc(=O)oc2c1 (stereo partly drawn) | inconclusive: 60.9%
17 | COc1cc(N)c(C(=O)c2nccc3cc(OC)c(OC)cc23)cc1OC | inactive: -2.21%
18 | Cc1cc([N+](=O)[O-])ccc1NCc1ccc2ccccc2c1 | inactive: 4.3%
19 | CCn1c2ccccc2c2cc(NC(=S)N3CCOCC3)ccc21 | inconclusive: 63%
20 | O=C(CSc1ccc(Cl)cc1)NCc1ccncc1 | inconclusive: 42.3%
21 | Cc1ccc(-n2c(C)cc(C)c(C#N)c2=O)cc1Cl | inconclusive: 33.6%
22 | O=C(Nc1ccc(Oc2cccc(C(F)(F)F)c2)nc1)c1ccco1 | inconclusive: 74%
23 | CCOC(=O)N1CCN(C(=O)CSc2ccc(C(F)(F)F)cc2[N+](=O)[O-])CC1 | inactive: -0.394%
24 | CC1Sc2ccc(C(=O)Nc3ccc(S(=O)(=O)N(C)C)cc3)cc2NC1=O (stereo not drawn) | inconclusive: 68.5%

Row | Structure (SMILES) | activation
25 | COc1ccc(C(=O)NC(=S)NCc2ccco2)cc1 | inactive: 19.9%
26 | NC(=O)c1ccc(-n2nc(C(F)(F)F)c3c2CCCC3)cc1 | inconclusive: 33.2%
27 | Cn1cc(C(=O)N/N=C/c2ccc3c(c2)OCO3)c2ccccc21 | inconclusive: 34%
28 | C/C(=N\Nc1ccc2nncn2n1)c1ccc(Br)s1 | active: 95.8%
29 | CCCN(CCC)Cc1c(C(=O)N/N=C/c2ccsc2)nnn1-c1nonc1N | inconclusive: 51.7%
30 | O/C(=C\c1nc2ccccc2[nH]1)c1cccs1 | inactive: 3.62%
31 | CCCCCOC(=O)Cc1c(O)c2ccccc2[nH]c1=O | inactive: 2.58%
32 | COc1cc(C(=O)Nc2ccc(C)cc2)c2ccccc2n1 | inconclusive: 39.9%
33 | Cc1ccc(O)c(C(=O)CC(=O)c2ccc(Cl)cc2)c1 | inconclusive: 41%
34 | O=C1CN(C(=O)c2ccccc2F)C(c2ccc(F)cc2)c2cc(Br)ccc2N1 (stereo not drawn) | inconclusive: 42.2%
35 | Fc1ccc(/C=N/Nc2nc3ccccc3[nH]2)cc1F | inconclusive: 33.1%
36 | COc1cccc(CNC(=O)COC(=O)C2CCN(c3ccc(C(F)(F)F)cn3)CC2)c1 | inconclusive: 43.3%
37 | COc1cccc(CN2CCN(Cc3cc4ccccc4o3)CC2CCO)c1 (stereo not drawn) | inactive: 1.2%
38 | COc1cc(C(=O)NCC(=O)N/N=C/c2cccnc2)cc(OC)c1OC | inactive: 0.345%
39 | O=C(Nc1ccc(Cl)cn1)c1cc2ccccc2o1 | inconclusive: 56.8%
40 | CC1=C(C(=O)OC2CCCCC2)C(c2ccco2)C2=C(CC(C)(C)CC2=O)N1 (stereo not drawn) | inconclusive: 55.4%
41 | COc1ccc(CCNC(=O)C(C)Sc2ccc(C)cc2)cc1OC (stereo not drawn) | inconclusive: 32.3%
42 | CCCn1c(=S)[nH]c2cc(Cl)ccc21 | inactive: 0.0806%
43 | CC(=O)OC(C(=O)Nc1ccccc1)C(C)S(=O)(=O)c1ccccc1 (stereo not drawn) | inconclusive: 37.5%
44 | CCCCC(=O)Nc1ccc2c(c1)OCCO2 | inconclusive: 33.8%
45 | CCCCS(=O)CC(COc1ccc(Cl)cc1)OC(=O)c1ccccc1 (stereo not drawn) | inconclusive: 30.2%
46 | COc1ccc(CNC(=O)CCSCc2cccc(F)c2)cc1 | inconclusive: 55.2%
47 | CC(=O)N1CCN(Cc2ccc(Br)s2)CC1 | inactive: 1.49%
48 | COC(=O)c1sc(=S)sc1C(=O)OC | inactive: 0.126%

Row | Structure (SMILES) | activation
49 | CCC(C)NC(=S)NNC(=O)c1ccc(C(C)(C)C)cc1 (stereo not drawn) | inconclusive: 55.8%
50 | COc1ccc(CC(=O)OCC(=O)N2CCc3ccccc32)cc1OC | inactive: 2.96%
51 | Cc1occc1C(=O)NCCc1cccc(Cl)c1 | inconclusive: 66.1%
52 | Cc1ccc(NC(=S)NC2CCCC2)cc1C | inactive: 26.4%
53 | CCN(CC)CCNC(=O)c1cn(CCOC)c(=O)c2c1c1ccccc1n2C | inactive: -3.42%
54 | COc1ccc(N2CCN(C(=O)NCc3ccc(OC)c(Cl)c3)CC2)cc1 | inconclusive: 63.9%
55 | O=C(CCCOc1ccc(Cl)cc1Cl)Nc1ccccn1 | inactive: -2.16%
56 | O=C(Nc1ccc(Br)cc1)Nc1ccccc1F | inconclusive: 56.9%
57 | O=C(O)CCCN1C(=O)/C(=C\c2ccc(-c3nc4ccccc4s3)o2)SC1=S | inactive: 28.2%
58 | COc1cccc(/C=N/n2c(N)nc3ccccc32)c1OC | inconclusive: 40.5%
59 | COC(=O)C1=C(C(=O)OC)[C@@H]2N(C)c3ccc(OC)cc3[C@@]23C[C@@H](C(=O)OC)N(C(=O)c2ccc(Br)cc2)C3=N1 | inconclusive: 76.6%
60 | CN(C)S(=O)(=O)c1ccc(C(=O)Nc2ccc(F)cc2F)cc1 | inconclusive: 63.7%
61 | CC(C)(C)c1ccc(C(=O)NCc2ccccc2)cc1 | inconclusive: 45.6%
62 | CCCNC(=O)Nc1nc2ccccc2s1 | inconclusive: 59.2%
63 | Cc1ccc(S(=O)(=O)N2CCCC(C(=O)N(Cc3cccs3)C3CC3)C2)cc1 (stereo not drawn) | inconclusive: 33.5%
64 | CC(C)(C)n1ncc2c(=O)n(Cc3ccccc3Br)cnc21 | inconclusive: 31.2%
65 | COc1cc2c(cc1OC)C(C)N(C(=O)c1cc3c(C)cc(C)cc3[nH]1)CC2 (stereo not drawn) | inactive: -3.25%
66 | Cc1ccc(/C=N/NC(=O)CCSc2ccccc2)cc1 | inconclusive: 32.2%
67 | COc1cc2c3nnc(-c4ccc(F)cc4)c-3cn(Cc3ccccc3)c2cc1OC | inactive: -2.58%
68 | Cc1ccc(C(=O)NC2CCc3ccccc3C2=O)cc1 (stereo not drawn) | inconclusive: 62.4%
69 | Cc1cccc(NC(=O)CC2CCC2)c1 | inactive: 15%
70 | O=c1cc(CN2CCOCC2)c2c(ccc3ccccc32)o1 | inconclusive: 38.9%
71 | CC(NC(=S)Nc1cccc(C(F)(F)F)c1)C(C)(C)C (stereo not drawn) | inconclusive: 46.1%
72 | COc1ccc(C(=O)Nc2ccc(C(=O)NCCc3ccc(OC)c(OC)c3)cc2)cc1 | inactive: -2.47%

Among those listed so far, 3 contain a nitro group on carbon:
Row | Structure (SMILES) | activation
4 | Nc1nn(S(=O)(=O)c2ccccc2)cc1-c1ccc([N+](=O)[O-])cc1 | inactive: 3.14%
18 | Cc1cc([N+](=O)[O-])ccc1NCc1ccc2ccccc2c1 | inactive: 4.3%
23 | CCOC(=O)N1CCN(C(=O)CSc2ccc(C(F)(F)F)cc2[N+](=O)[O-])CC1 | inactive: -0.394%

(more compounds)

Row | Structure (SMILES) | activation
73 | CC(C)C[C@H](NC(=O)c1nc[nH]c1C(=O)NCC(=O)OC(C)(C)C)C(=O)OC(C)(C)C | inconclusive: 70.9%
74 | CCCCC1CCC(C(=O)N2CCOCC2)CC1 (stereo not drawn) | inconclusive: 79.3%
75 | CC(=O)c1c(C)[nH]c(C(=O)OC(C)C(=O)Nc2ccc(C)c(S(=O)(=O)N3CCOCC3)c2)c1C (stereo not drawn) | inactive: -2.15%
76 | Cc1cc(C(=O)OCC(=O)NC(C)c2ccc(F)cc2)c(C)o1 (stereo not drawn) | inconclusive: 30.2%
77 | O=C(Nc1ccccc1N1CCCC1)c1ccc2ccccc2c1 | inconclusive: 30.2%
78 | Cc1ccc(C2(c3noc(CN(C)Cc4cccnc4)n3)CCCC2)cc1 | inconclusive: 34.8%
79 | Cc1nn(-c2ccccc2)c(C)c1/C=N/NC(=O)c1cc(-c2ccc(Cl)s2)[nH]n1 | inconclusive: 38.2%
80 | C=CCSc1nnc(NC(=O)c2ccc(Cl)nc2)s1 | inactive: -1.93%
81 | Cc1ccc(NC(=O)NC(=O)N(C(C)C)S(C)(=O)=O)nc1 | inactive: -3.93%
82 | CCOC(=O)c1[nH]c2cc3c(cc2c1NC(=O)CN1CC(C)CC(C)C1)OCO3 (stereo not drawn) | inconclusive: 58.3%
83 | CC(C)C(OC(=O)/C=C/c1ccc2c(c1)OCO2)C(=O)NC(N)=O (stereo not drawn) | inconclusive: 56.7%
84 | CCC(=O)c1ccc(OCC(=O)N2CCc3cc(OC)c(OC)cc3C2)cc1 | inactive: 11%
85 | C=CCn1c(=O)/c(=C/c2ccc(Cl)cc2)s/c1=C(/C#N)c1nnc2n1CCCCC2 | inconclusive: 57.2%
86 | CCC(C)(C)NC(=O)CN(C(=O)c1snc(C(N)=O)c1N)c1ccc2c(c1)OCCO2 | inactive: 1.51%
87 | O=C(NCC1CCCCC1)c1cc(S(=O)(=O)N2CCOCC2)ccc1F | inconclusive: 33.6%
88 | CCOCC(=O)Nc1ccccc1C(=O)OCC | inactive: -0.815%
89 | COCCN(CCOC)c1nc(-c2ccc(C)cc2)nc2ccccc12 | inactive: 22.4%
90 | O=C(Nc1cc(S(=O)(=O)N2CCCCC2)ccc1Cl)c1ccc(F)cc1 | inconclusive: 46.9%
91 | O=C(Nc1ccc2c(c1)OCCO2)c1cccc(C(=O)Nc2ccc3c(c2)OCCO3)c1 | inconclusive: 39.6%
92 | CNC(=S)NCCCc1ccccc1 | inconclusive: 57.5%
93 | C=CCNC(=O)NC(=O)COC(=O)/C=C/c1cccc([N+](=O)[O-])c1 | inactive: 0.105%
